Library screen at single concentrations

The chains behind the UniProt entries cited, without tags or fusion partners. Residues count along the entry.
UniProt A4I591, 1-473: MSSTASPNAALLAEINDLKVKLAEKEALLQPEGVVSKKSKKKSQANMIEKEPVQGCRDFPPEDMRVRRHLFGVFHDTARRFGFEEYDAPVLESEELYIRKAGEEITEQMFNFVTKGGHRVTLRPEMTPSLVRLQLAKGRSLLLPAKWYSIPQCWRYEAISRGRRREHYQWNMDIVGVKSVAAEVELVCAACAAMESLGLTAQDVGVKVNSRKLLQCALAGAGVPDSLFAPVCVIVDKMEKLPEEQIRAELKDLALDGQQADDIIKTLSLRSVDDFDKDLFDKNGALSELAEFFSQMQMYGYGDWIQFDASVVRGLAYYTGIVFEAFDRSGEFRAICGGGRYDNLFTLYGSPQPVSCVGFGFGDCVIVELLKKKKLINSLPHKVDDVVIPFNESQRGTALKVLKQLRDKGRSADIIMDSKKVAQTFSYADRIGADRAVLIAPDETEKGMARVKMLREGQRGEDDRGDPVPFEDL
UniProt I6X8D2, whole entry: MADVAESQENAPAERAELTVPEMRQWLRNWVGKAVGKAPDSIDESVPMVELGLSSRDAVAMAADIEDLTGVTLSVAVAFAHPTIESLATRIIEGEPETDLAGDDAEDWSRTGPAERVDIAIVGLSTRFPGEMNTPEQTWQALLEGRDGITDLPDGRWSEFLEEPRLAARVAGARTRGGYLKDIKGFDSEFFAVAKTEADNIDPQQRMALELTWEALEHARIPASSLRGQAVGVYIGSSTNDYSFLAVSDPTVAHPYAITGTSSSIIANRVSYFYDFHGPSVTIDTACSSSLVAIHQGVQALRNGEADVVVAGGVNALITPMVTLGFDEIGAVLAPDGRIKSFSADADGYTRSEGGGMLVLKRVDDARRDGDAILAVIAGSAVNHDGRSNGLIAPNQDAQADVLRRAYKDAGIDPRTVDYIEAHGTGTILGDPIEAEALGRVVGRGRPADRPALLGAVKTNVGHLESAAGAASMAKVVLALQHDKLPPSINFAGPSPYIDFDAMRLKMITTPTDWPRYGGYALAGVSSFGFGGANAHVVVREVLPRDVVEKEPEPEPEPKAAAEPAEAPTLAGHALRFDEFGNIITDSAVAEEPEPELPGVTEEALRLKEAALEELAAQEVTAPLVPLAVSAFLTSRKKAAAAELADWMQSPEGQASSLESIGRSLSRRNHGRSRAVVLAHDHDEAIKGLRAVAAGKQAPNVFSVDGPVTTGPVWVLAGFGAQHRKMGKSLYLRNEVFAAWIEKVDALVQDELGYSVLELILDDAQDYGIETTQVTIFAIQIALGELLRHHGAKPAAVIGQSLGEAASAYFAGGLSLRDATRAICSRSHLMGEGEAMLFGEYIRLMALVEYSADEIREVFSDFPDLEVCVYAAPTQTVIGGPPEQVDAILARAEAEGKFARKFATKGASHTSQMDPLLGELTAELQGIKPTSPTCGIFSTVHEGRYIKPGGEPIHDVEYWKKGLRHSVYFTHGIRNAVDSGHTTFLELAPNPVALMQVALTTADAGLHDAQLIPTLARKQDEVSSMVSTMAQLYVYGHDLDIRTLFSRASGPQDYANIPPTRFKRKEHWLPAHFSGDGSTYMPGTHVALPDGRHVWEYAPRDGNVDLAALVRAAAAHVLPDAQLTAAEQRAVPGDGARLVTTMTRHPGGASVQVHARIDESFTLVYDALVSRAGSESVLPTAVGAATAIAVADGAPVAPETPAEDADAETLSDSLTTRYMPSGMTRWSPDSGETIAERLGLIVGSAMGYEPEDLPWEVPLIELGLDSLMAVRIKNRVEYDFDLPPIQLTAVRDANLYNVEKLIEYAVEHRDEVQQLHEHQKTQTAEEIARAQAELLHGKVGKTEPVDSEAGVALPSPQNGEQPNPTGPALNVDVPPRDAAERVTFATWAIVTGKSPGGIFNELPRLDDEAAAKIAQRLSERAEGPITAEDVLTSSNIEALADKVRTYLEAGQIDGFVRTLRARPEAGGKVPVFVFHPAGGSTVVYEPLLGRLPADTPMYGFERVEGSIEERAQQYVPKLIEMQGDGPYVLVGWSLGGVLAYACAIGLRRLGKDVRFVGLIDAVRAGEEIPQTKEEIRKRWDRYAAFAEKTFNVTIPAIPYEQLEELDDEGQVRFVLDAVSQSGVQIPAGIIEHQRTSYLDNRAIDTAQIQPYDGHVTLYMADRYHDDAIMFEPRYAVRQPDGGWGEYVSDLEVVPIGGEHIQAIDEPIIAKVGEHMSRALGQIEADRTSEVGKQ
UniProt P9WFT3, whole entry: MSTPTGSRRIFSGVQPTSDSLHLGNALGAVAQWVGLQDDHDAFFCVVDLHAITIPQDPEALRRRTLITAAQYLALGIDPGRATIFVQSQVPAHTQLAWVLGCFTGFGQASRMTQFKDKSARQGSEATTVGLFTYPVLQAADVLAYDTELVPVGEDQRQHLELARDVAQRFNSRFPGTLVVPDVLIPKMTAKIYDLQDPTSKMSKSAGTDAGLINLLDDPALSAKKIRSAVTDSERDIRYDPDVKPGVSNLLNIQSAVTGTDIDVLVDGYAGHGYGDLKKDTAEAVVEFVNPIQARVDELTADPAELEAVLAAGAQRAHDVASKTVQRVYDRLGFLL
UniProt Q4DA54, 1-478: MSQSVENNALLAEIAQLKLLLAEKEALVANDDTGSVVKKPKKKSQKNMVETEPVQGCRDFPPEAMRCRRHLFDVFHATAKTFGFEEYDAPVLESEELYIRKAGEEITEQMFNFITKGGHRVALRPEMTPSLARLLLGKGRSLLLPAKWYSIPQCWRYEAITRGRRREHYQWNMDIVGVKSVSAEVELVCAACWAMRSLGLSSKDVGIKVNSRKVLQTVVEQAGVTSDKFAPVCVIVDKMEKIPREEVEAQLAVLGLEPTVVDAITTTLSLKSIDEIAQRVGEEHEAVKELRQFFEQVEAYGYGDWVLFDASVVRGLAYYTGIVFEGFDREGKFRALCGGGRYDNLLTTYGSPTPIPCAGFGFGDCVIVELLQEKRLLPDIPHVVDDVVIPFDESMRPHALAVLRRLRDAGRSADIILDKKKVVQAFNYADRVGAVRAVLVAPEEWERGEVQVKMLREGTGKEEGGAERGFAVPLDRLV

The values are deposited in ChEMBL (CHEMBL3988442, “University of Dundee, Small-Polar-MMV Screening Library” (2021)).

LiHisRS: 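Enzyme assay of histidyl-tRNA synthetase; the read-out is not stated. Target: Histidine-tRNA ligase, Leishmania infantum (UniProt A4I591). Concentration: 30 µM. Direction is inferred from retests: higher values go with stronger inhibition. The assay is labelled LdHisRS but filed under L. infantum. About 69,000 compounds were tested under these conditions; 0.6% (about 410) showed 50% or more at least once.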
Pks13 thioesterase: 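Polyketide synthase Pks13, Mycobacterium tuberculosis (UniProt I6X8D2). Enzyme assay of the thioesterase domain of polyketide synthase 13; the read-out is not stated. Concentration: 30 µM. Higher reads as stronger inhibition (inferred from which compounds were picked for retests). Size under these conditions: about 67,000 compounds, about 300 of them at 50% or above in at least one test.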
MtTrpRS: 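Tryptophan-tRNA ligase, Mycobacterium tuberculosis (UniProt P9WFT3). Enzyme assay of tryptophanyl-tRNA synthetase; the read-out is not stated. Tested at 10 µM. Higher most likely means stronger inhibition; the record gives no direction and few retests gave an IC50. About 65,000 compounds were tested under these conditions; 0.098% (about 64) showed 50% or more at least once.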
TcHisRS: 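Enzyme assay of histidyl-tRNA synthetase; the read-out is not stated. Target: Histidine-tRNA ligase, Trypanosoma cruzi CL Brener (UniProt Q4DA54). Concentration: 30 µM. The record gives no direction; compounds that gave an IC50 in retests scored well above the rest, so higher reads as stronger inhibition. About 69,000 compounds were tested under these conditions; 0.045% (about 31) showed 50% or more at least once.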

Values are the deposited “Percent Effect”, in %. The controls that fix the scale are not given in the record; negative values are as filed. The compounds are a random part of those screened. A dash means the value is not listed here; it may have been measured.

Compound	LiHisRS	Pks13 thioesterase	MtTrpRS	TcHisRS
Cn1ncc(NCc2cccc(COC(C)(C)C)c2)c(Cl)c1=O	20.27%	-13.97%	-0.7601%	-11.7%
COCCC(=O)N1CCN(CCN(C)C)c2ncccc2C1	8.491%	-4.909%	-0.9114%	2.51%
CC1(C)CCN(Cc2ccccc2-c2nc(C(C)(C)C)cc(=O)[nH]2)C1	17.95%	3.941%	-6.172%	12.64%
COC(=O)CN1Cc2cc3c(cc2NCCC1=O)OCO3	18.56%	-	-	2.312%
CCCn1cc(C(=O)N2CCCC(c3nccn3CCOC)C2)c(C)n1 (centres unmarked)	12.33%	4.453%	-4.578%	6.931%
C=C(C)Cn1cc(C(N)=O)nc1C1CC1	-10.11%	-15.17%	-1.861%	0.5181%
NC(=O)c1cccc(CN2CCOC(Cn3cccn3)C2)c1 (centres unmarked)	27.06%	-15.59%	2.13%	0.4484%
Cc1nn(C)c(C)c1NC(=O)CNc1ccc(F)c(C(F)(F)F)c1	11.11%	-9.182%	2.222%	10.71%
Cc1ccc(S(=O)(=O)Cc2nnc(C)n2C)cc1	10%	-15.98%	-0.9266%	0.8696%
Nc1nc2c(c(N3CCSCC3)n1)CCN(Cc1ccccn1)CC2	13.16%	2.237%	-2.391%	1.676%
COc1ccnc(NC2CCN(CC(=O)Nc3ccccc3)CC2)n1	4%	-5.247%	10.52%	2.89%
CC(NC(=O)NCCCO)c1ccc(-c2ccncc2)cc1 (centres unmarked)	9.821%	-21.97%	1.398%	3.448%
Cc1cc(C2CCCN2CC(=O)N(CCC#N)c2ccccc2F)on1 (centres unmarked)	18.46%	-22.23%	-7.872%	-1.916%
O=C(Nc1cncc(Br)c1O)c1ccon1	23.33%	-54.53%	-0.5942%	6.818%
CCc1n[nH]c(C2CN(CCc3ccncc3)CCO2)n1 (centres unmarked)	8.108%	-8.274%	-1.072%	4.887%
O=C([C@@H]1COC[C@H]2CN(c3ccncn3)C[C@H]21)N1CCCCO1	22.81%	-29.98%	1.549%	6.557%
CN(C)C(=O)CNC(=O)c1nc2c(s1)CCCN2Cc1ccccc1	28.21%	-33.45%	-2.186%	5.882%
O=C(c1ccsc1)N1CCO[C@@H]2CN(Cc3ccccn3)CC[C@@H]2C1	15.79%	-10.47%	7.153%	-1.093%
CCCN1CCc2nc(SCc3ccc(F)cc3)[nH]c(=O)c2C1	13.7%	5.997%	1.187%	36%
CCOCC1CC2(CCN(C(=O)c3ncccn3)CC2)CO1 (centres unmarked)	9.091%	-5.402%	0.3487%	9.091%
Cc1cc(C[C@@H]2CCC[C@H]2NCc2ccc(C(F)(F)F)cc2)on1	21.74%	9.721%	-	9.89%
CS(=O)(=O)N1CCC2(CCN(Cc3nccs3)CC2)CC1	14%	-32.47%	-1.647%	3.448%
Cn1c2c(c(=O)n1C)CN(S(=O)(=O)c1cccs1)CCC2	4.202%	-	6.233%	4.902%
CCOCCCNC(=O)c1nn(CC)cc1Cl	23.3%	-19.67%	7.437%	1.639%
COCCN1C[C@@H]2COC[C@@H](CC(=O)NCc3cccnc3)[C@@H]2C1	26.92%	-	-	2.793%
CCCC(NC(=O)c1ccccn1)c1nnc2ccccn12 (centres unmarked)	16.44%	-0.6477%	-4.681%	1.587%
CCN(CC)CC[C@H]1CN(C(=O)NC2CCCCC2)CC[C@H]1CC(=O)O	13.89%	15.72%	-1.581%	11.88%
CCc1ccc(CN2CCC3(CC2)CC(N2CCN(C)CC2)CO3)cc1 (centres unmarked)	6.015%	-21.13%	1.482%	2.762%
COc1ccccc1C(O)CNc1nccc(-c2ccc(C)nc2C)n1 (centres unmarked)	19.35%	-14.66%	-4.25%	10.88%
CC(C)(C(=O)NCC1CCN(Cc2cccnc2)C1)c1ccccc1 (centres unmarked)	14.75%	2.663%	-2.807%	8.155%
CC(=O)Nc1ncc(-c2ccc(C)cc2)[nH]1	10.17%	-8.542%	0.3943%	7.317%
CN(C)[C@@H]1CCN(C(=O)Cc2ccc(F)cc2)[C@H]1Cc1cnn(C)c1	8.029%	-17.19%	-1.41%	4.918%
CC(C)c1nc(CN(C)C2CCN(CCn3cc(C#N)cn3)C2)no1 (centres unmarked)	19.3%	1.547%	1.94%	5.444%
c1cncc(-c2ccc3c(c2)CCC32CCN(Cc3ccco3)CC2)c1	44%	-29.63%	-2.196%	10.34%
CC(C)NC1CCc2c(ccc(=O)n2CCN2CCCC2=O)C1 (centres unmarked)	17.95%	-32.51%	-0.7757%	2.674%
CNCCc1nc2cc(F)ccc2[nH]1	55.34%	-1.872%	-0.3552%	12.03%
Cc1cnn(C2CN(CC(=O)N(C)Cc3ccc(C)o3)C2)c1	-60.8%	-1.762%	-2.859%	13.73%
CC1(C)CC(N(Cc2ccccc2)Cc2cccnc2)CC(C)(C)N1	27.78%	-37.84%	0.2508%	-1.622%
Cc1ccc(C(=O)N2CCc3c(CNS(C)(=O)=O)cncc3C2)o1	13.21%	-10.8%	-4.092%	3.784%

Repeated from the top, 4 entries:

Compound,LiHisRS,Pks13 thioesterase,MtTrpRS,TcHisRS
Cn1ncc(NCc2cccc(COC(C)(C)C)c2)c(Cl)c1=O,20.27%,-13.97%,-0.7601%,-11.7%
COCCC(=O)N1CCN(CCN(C)C)c2ncccc2C1,8.491%,-4.909%,-0.9114%,2.51%
CC1(C)CCN(Cc2ccccc2-c2nc(C(C)(C)C)cc(=O)[nH]2)C1,17.95%,3.941%,-6.172%,12.64%
COC(=O)CN1Cc2cc3c(cc2NCCC1=O)OCO3,18.56%,-,-,2.312%